A: 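Whole-parasite assay of Trypanosoma brucei over 72 hours; the read-out is not stated. Tested at 30 µM. Higher reads as stronger inhibition (inferred: compounds with an IC50 in retests scored well above the rest). Values scatter widely below zero; nearly all retest evidence comes from the higher of the two concentrations used. Of about 64,000 compounds tested this way, about 940 (1.5%) reached 50% or more in at least one test.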
B: 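Assay of Toxoplasma gondii numbers, read through their beta-galactosidase reporter with a colour substrate. Compounds at 10 µM. Higher reads as fewer parasites (inferred from which compounds were picked for retests). About 67,000 compounds were tested under these conditions; 0.38% (about 260) showed 50% or more at least once.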

Each number is a percent effect as filed.
How 0% and 100% were set is not recorded. Most values in the screen are low, and negative values occur.
Compounds were drawn at random from those tested, without regard to their results.
A dash means the value is not listed here; it may have been measured.

| # | compound | A | B |
|---|---|---|---|
| 1 | `O=C(O)C(F)(F)F.[H][C@]12C[C@H](C(=O)NC)N(C)[C@@]1([H])CN(S(=O)(=O)c1ccc(C)cc1)C2` | 4.055 | 7.268 |
| 2 | `CCn1cc(S(=O)(=O)NCC(c2ccccc2)N2CCOCC2)c(C)n1` (stereo not given) | -15.65 | -6.031 |
| 3 | `Cc1ccc(CC(=O)Nc2cc(C(C)C)n[nH]2)cn1` | 101.5 | 86.76 |
| 4 | `C[C@]1(O)CN(CC(=O)N2CCCC2)CC[C@@H]1Oc1cccc(F)c1` | 21.14 | -1.867 |
| 5 | `COCCC(=O)N1CCC2(COCc3cnc(NCC4CC4)nc32)C1` (stereo not given) | -4.24 | -3.402 |
| 6 | `O=C(O)C(F)(F)F.[H][C@@]12C[C@H](C)O[C@]1([H])CCN(S(=O)(=O)c1c(C)nn(C)c1C)C2` | 4.999 | -27.11 |
| 7 | `COCCC1(C(=O)O)CCCN(C(=O)c2cc(Cl)ccc2F)C1` (stereo not given) | -11.98 | -31.84 |
| 8 | `O=C(O)C(F)(F)F.[H][C@@]12COC[C@H](NS(C)(=O)=O)[C@]1([H])CN(Cc1ccc(CC)o1)C2` | -9.462 | 1.899 |
| 9 | `O=C(C1CC1)N1CCCC(c2nc(O)cc(-c3ccncc3)n2)C1` (stereo not given) | -2.815 | 9.777 |
| 10 | `O=C(O)C(F)(F)F.O=C(O)C(F)(F)F.O=C(O)C(F)(F)F.[H][C@@]12C[C@@H](OCc3cccc(C)n3)CN1CCN(c1ncccn1)C2` | -63.36 | -3.398 |
| 11 | `O=C(c1cc(-n2cccn2)ccn1)N(CC(F)(F)F)C1CCCC1` | 8.496 | 0.0612 |
| 12 | `CC(C)c1ncc(C(=O)N2CCOCC2CC(=O)c2ccco2)s1` (stereo not given) | -17.45 | -6.121 |
| 13 | `CC(CNC(=O)CCCn1cncn1)N1CCc2ccccc2C1` (stereo not given) | -32.01 | -3.377 |
| 14 | `CC(C)c1cnc(CN(C)C2CCN(CCc3cnn(C)c3)C2)o1` (stereo not given) | 4.209 | -6.578 |
| 15 | `COc1ccc(S(=O)(=O)NCCC(O)c2cccs2)c(C)c1` (stereo not given) | 4.882 | 30.89 |
| 16 | `O=C(c1ccncc1)N1CCc2c(COCC3CC3)cncc2C1` | -8.544 | -29.96 |
| 17 | `COC(=O)CCCN(C)C(=O)c1cc(F)cc2[nH]cnc12` | -20.46 | 0.3736 |
| 18 | `Cc1nc2ccccc2n1Cc1cc(C(=O)N(C)C2CCOCC2)no1` | -53.58 | 24.03 |
| 19 | `O=C1CCCC2=C1C(c1ccc(Cl)cc1Cl)Nc1nonc1N2` (stereo not given) | - | -9.838 |
| 20 | `COc1cccn(C(C)C(=O)NC2CCCC2)c1=O` (stereo not given) | -43.51 | 11.08 |
| 21 | `[H][C@]12CC[C@]([H])(CN(CC(=O)N(C)C)C1)N(C(=O)CCn1cc(C)cn1)C2` | -0.9465 | -3.924 |
| 22 | `Cn1c(N)nnc1SCC1OCCc2ccccc21` (stereo not given) | 10.52 | 3.369 |
| 23 | `O=C(c1ccoc1)N1CCCN(C(=O)c2ccc(C3CCCN3)s2)CC1` (stereo not given) | -9.872 | -1.048 |
| 24 | `CC(C)C(C)(O)CNc1cccc(F)c1C#N` (stereo not given) | -26.8 | 11.17 |
| 25 | `Cc1cnn(CC2CCCN2C(=O)c2ccc(OC(C)C)nc2)c1` (stereo not given) | -27.14 | -9.549 |
| 26 | `CS(=O)(=O)NC1CCCN(C(=O)COCc2ccccc2)C1` (stereo not given) | - | -5.492 |
| 27 | `CCC[C@@H](NC(N)=O)C(=O)N1CCc2ccccc2CC1` | -10.68 | 0.437 |
| 28 | `O=C(O)C(F)(F)F.O=C(O)C(F)(F)F.[H][C@@]12COC[C@]1(COCc1ccccn1)CN(Cc1cccc(OC)c1)C2` | 13.12 | -8.529 |
| 29 | `O=C(N1CCOCC1)N1CCOC[C@H](Oc2ccc(C(F)(F)F)cc2)C1` | -4.098 | -5.081 |
| 30 | `CCN1CCn2c(C)cnc2C12CCN(C(=O)Cc1ccccc1)CC2.O=C(O)C(F)(F)F.O=C(O)C(F)(F)F` | -29.57 | 21.97 |
| 31 | `COc1ccc(F)cc1S(=O)(=O)NCCn1cnc(C)cc1=O` | -32.65 | 10.92 |
| 32 | `O=C(CN1CCCCC1=O)N1CCC2(CC1)[C@H](O)C[C@@H]2O` | -7.645 | 3.643 |
| 33 | `[H][C@]12C[C@H](NC(=O)c3cnn(C)c3)[C@@]1([H])CN(S(=O)(=O)c1ccc(C)cc1)C2` | -2.175 | -8.679 |
| 34 | `CN(Cc1ccc(C#N)cc1)Cn1nccc1-c1cccnc1` | 1.828 | -3.241 |
| 35 | `CCc1ccc(C(=O)N2CCN(CCS(C)(=O)=O)CC2)o1` | -34.18 | -13.13 |
| 36 | `Cc1cc(CN(C)C(=O)CN2CC3(CCNCC3)OC2=O)no1` | -18.26 | 1.945 |
| 37 | `CNc1cncc(C2CCCN2C(=O)c2ccc3oc(C)cc3c2)n1` (stereo not given) | 35.53 | -8.924 |
| 38 | `O=C(NCCCN1CCOCC1)c1ccc(-c2ccccc2)[nH]c1=O` | -19.56 | 5.03 |
| 39 | `OC(COc1ccc(F)cc1)CN1CCC(c2ccn[nH]2)CC1` (stereo not given) | - | 22.83 |
| 40 | `CCc1ccc(N2CCC(NS(=O)(=O)N(CC)CC)CC2)cc1` | -37.7 | 9.524 |
| 41 | `COCCn1cc(C(=O)N2CCCC2c2cnn(C)c2)ccc1=O` (stereo not given) | -22.02 | 12.52 |
| 42 | `O=C(O)C(F)(F)F.[H][C@@]12OCCN(c3ncccn3)[C@@]1([H])CC[C@H]2OCC(=O)N(C)C` | -36.75 | -2.961 |
| 43 | `CCC(NC(=O)NCc1nncn1CC)c1ccc(OC)cc1` (stereo not given) | -27.82 | -10.65 |
| 44 | `CC(C)c1nnsc1CN1CCc2[nH]nc(-c3ccc(F)c(F)c3)c2C1` | 8.442 | -7.777 |
| 45 | `Cn1c(C2CC2)nc2c1CCN(CC(=O)NC1CCCCNC1=O)C2` (stereo not given) | 0.9342 | 5.869 |
| 46 | `Cc1cc(C)n(CCCN(C)c2cc(C3CC3)ncn2)n1` | -57.83 | 18.43 |
| 47 | `Cn1ccnc1CN1CCC(c2nnc(Cn3cccn3)n2C)CC1` | -57.42 | 25.72 |
| 48 | `Cn1cc(CCNCC2CNc3ccnn3C2)cn1` (stereo not given) | -42.12 | -6.963 |
| 49 | `CN(Cc1cc(C(C)(C)C)n[nH]1)C(=O)c1cn2ccsc2n1` | -29.68 | 18.91 |
| 50 | `O=C(O)C(F)(F)F.[H][C@@]12COC[C@]1(COCC)CN(Cc1ccc(F)c(F)c1)C2` | 6.986 | -7.632 |
| 51 | `Cc1cnc(N2CCC3(CC2)C(c2ccccc2)CC(=O)N3C)nc1` (stereo not given) | -32.52 | 1.968 |
| 52 | `CN(CC(F)(F)F)C(=O)CN1CCC(c2cc3ccccc3[nH]2)CC1` | -6.212 | 3.95 |
| 53 | `O=S(=O)(NCCc1nnc2ccccn12)c1cccnc1` | -57.39 | 2.21 |
| 54 | `CC(=O)N1CCCC1C(=O)NCCOc1c(C)cccc1C` (stereo not given) | - | 0.1047 |
| 55 | `CN(C)c1cncc(C2CCN(CC(N)=O)CC2)n1` | -0.7463 | -1.022 |
| 56 | `CC(C)N(C)Cc1ncn2c1CN(CC(=O)N(C)C)CCC2` | -56.43 | 1.913 |
| 57 | `CC(C1CC1)N(C)C(=O)CCn1cccn1` (stereo not given) | -1.588 | -0.3917 |
| 58 | `NC(=O)c1cccc(CC2CCN(C(=O)Cn3cnnn3)C2)c1` (stereo not given) | -40.12 | 7.056 |
| 59 | `O=C(O)c1csc(S(=O)(=O)N2CCCc3cccc(OC(F)F)c32)c1` | 6.997 | -10.16 |
| 60 | `CCn1c(Cn2cncn2)nnc1C1CCN(Cc2cccnc2)CC1` | -43.86 | -16.4 |
| 61 | `CC(C)c1nc(CN2CCN(Cc3ccccn3)CC2)cs1` | -5.835 | 3.011 |
| 62 | `COCc1nn(C)c2c1CN(Cc1cnn(C)c1)CC2.O=C(O)C(F)(F)F` | -23.47 | 3.842 |
| 63 | `OCC1CCCN1c1cc(NCCc2nccs2)ncn1` (stereo not given) | -8.6 | -14.18 |
| 64 | `CC(C)CCN(c1cn[nH]c1)S(=O)(=O)c1cccc(C#N)c1` | -46.15 | -3.805 |
| 65 | `O=C(c1ccc(-n2cccn2)nc1)N1CCC(c2ccn[nH]2)C1` (stereo not given) | - | 19.77 |
| 66 | `CCn1cc(CN(C)S(=O)(=O)N2CCCC2c2ccco2)cn1` (stereo not given) | -13.36 | 1.618 |
| 67 | `N#Cc1ccc(N2CCC3(CCC(=O)N3Cc3ccncc3)CC2)nc1.O=C(O)C(F)(F)F.O=C(O)C(F)(F)F` | 9.182 | -20.07 |
| 68 | `Cc1nc(N)cc(C2(C)CCCNC2)n1` (stereo not given) | 14.19 | 3.946 |
| 69 | `Cc1cc(-c2cc(C3CCOC3)c(C#N)c(N)n2)ccc1Cl` (stereo not given) | 15.84 | 5.622 |
| 70 | `CC1(Cc2ccc(Cl)cc2)Cc2cc(CCC(=O)O)ccc2O1` (stereo not given) | -3.061 | 7.557 |
| 71 | `COc1ccc2c(=O)n(CC3CCCCN3C)ccc2c1OC` (stereo not given) | -8.753 | -4.908 |
| 72 | `Cc1cc(C2CCC2)nc(NCC(C)(C)CO)n1` | 16.15 | 2.766 |
| 73 | `Cc1cccc(OCCN2CCN(Cc3noc(C)n3)CC2)c1` | -2.642 | -13.55 |
| 74 | `Cc1csc(N2CCCN(C(=O)c3c(C)oc(C)c3C)CC2)n1` | -20.22 | 11.69 |
| 75 | `CN(CCO)Cc1nnc(C2CCN(C3CCCCC3)CC2)n1C` | -16.38 | -1.322 |
| 76 | `CN(Cc1nc2c(cnn2C)c(=O)[nH]1)Cc1ccccc1Cl` | 2.753 | 4.153 |
| 77 | `COCCc1noc(CN2CCOC(Cn3nc(C)cc3C)C2)n1` (stereo not given) | 6.724 | 0.3337 |
| 78 | `COCc1nn(CC2CC2)c2c1CN(Cc1ccco1)CC2.O=C(O)C(F)(F)F` | -20.81 | -14.23 |
| 79 | `[H][C@]12CC[C@]([H])(CN(Cc3nnc(C4CC4)o3)C1)N(Cc1cscn1)C2=O` | -30.68 | 14.91 |
| 80 | `CCc1nnsc1C(=O)N1CCCN(Cc2ccccc2)CC1` | 22.97 | 1.969 |

Data taken from ChEMBL document CHEMBL3988442, “University of Dundee, Small-Polar-MMV Screening Library” (2021).